Source: patent publication US20190322728A1 (PROTHENA BIOSCIENCES, published 2019)
No constants are given. Whether binding was seen depends on the method and setting. Some binding calls cover weakened binding; strength is not graded here.

Protein sequences, listed by entry. Tags and fused reporters are not part of them. Lines headed by an entry give the natural chain unless they say otherwise; changes in a name come on top. Chains listed by the source or under a name are the forms on record and can include a tag or linker.
UniProt P10636: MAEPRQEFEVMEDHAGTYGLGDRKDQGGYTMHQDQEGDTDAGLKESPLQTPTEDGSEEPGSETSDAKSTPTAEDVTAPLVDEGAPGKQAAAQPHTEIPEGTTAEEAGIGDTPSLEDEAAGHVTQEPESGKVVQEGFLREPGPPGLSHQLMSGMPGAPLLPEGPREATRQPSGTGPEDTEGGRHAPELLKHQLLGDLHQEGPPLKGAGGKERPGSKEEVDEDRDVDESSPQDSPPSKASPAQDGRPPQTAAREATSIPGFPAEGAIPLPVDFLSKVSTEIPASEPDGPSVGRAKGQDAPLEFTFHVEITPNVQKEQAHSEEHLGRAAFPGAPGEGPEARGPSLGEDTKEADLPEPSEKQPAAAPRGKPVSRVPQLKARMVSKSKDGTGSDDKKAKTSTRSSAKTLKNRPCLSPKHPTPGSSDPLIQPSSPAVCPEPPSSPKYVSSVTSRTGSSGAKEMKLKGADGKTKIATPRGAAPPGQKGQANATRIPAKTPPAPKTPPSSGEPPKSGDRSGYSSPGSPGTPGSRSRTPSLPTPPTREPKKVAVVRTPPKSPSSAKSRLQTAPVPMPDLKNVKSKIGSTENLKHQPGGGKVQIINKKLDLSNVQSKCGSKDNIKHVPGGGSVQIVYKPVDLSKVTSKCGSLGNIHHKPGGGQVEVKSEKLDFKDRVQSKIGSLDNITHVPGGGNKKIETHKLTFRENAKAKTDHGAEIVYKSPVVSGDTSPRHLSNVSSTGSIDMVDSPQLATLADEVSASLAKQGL
tau in human Alzheimer's disease brain (frontal cortex extracts and tissue sections) (P10636, form named): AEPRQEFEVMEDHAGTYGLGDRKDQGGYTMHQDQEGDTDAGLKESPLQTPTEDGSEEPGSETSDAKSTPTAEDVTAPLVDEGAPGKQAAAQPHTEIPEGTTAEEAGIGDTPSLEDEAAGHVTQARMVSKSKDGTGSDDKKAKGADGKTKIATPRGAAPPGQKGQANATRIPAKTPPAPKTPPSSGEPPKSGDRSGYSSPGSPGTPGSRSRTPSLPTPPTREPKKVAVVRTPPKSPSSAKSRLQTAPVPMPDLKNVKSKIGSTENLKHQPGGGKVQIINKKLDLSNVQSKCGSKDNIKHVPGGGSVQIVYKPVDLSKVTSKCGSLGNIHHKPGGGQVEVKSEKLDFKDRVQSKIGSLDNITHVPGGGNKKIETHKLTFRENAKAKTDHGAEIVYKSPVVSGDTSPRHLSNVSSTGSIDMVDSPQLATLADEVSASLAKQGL

Columns and labels:
[1] = target: tau deletion mutant Δ37-46 (printed A37-46) (human) (UniProt P10636); experiment: Western blot of bacterial lysate, antibody at 0.2 µg/mL
[2] = target: tau in human Alzheimer's disease brain (frontal cortex extracts and tissue sections) (human) (UniProt P10636); experiment: immunohistochemistry on Alzheimer's disease tissue, antibody at 1 ug/mL (column Stain AD Tissue)
[3] = target: tau in human Alzheimer's disease brain (frontal cortex extracts and tissue sections) (human) (UniProt P10636); experiment: immunohistochemistry on Alzheimer's disease brain sections
[4] = target: tau in human Alzheimer's disease brain (frontal cortex extracts and tissue sections) (human) (UniProt P10636); experiment: immunoprecipitation from Alzheimer's disease frontal cortex fractions with protein G beads, blot with polyclonal tau antibody
[5] = target: tau in human Alzheimer's disease brain (frontal cortex extracts and tissue sections) (human) (UniProt P10636); experiment: immunohistochemistry on Alzheimer's disease brain cryosections
purified tau (Example 1) = purified tau (Example 1) (UniProt P10636); experiment: capture ELISA
[6] = target: tau in human Alzheimer's disease brain (frontal cortex extracts and tissue sections) (human) (UniProt P10636); experiment: immunoprecipitation from Alzheimer's disease frontal cortex fractions, blot with polyclonal tau antibody
[7] = target: tau in human Alzheimer's disease brain (frontal cortex extracts and tissue sections) (human) (UniProt P10636); experiment: double immunofluorescent labeling on Alzheimer's disease brain sections

Measured: binding

B1: 16B5 monoclonal antibody (mouse) (antibody, V domains shown)
VH: QIQLVQSGPELKKPGETVKISCKASGYPFTYHGMDWVKQAPWGGLEWMGWINTYSGVPTYADDFKGRFAFSLETSVGTAYLQINNLKNEDTATYFCARRRDFTMDFWGQGTSVTVSS
VL: NIVLSQSPSSLAVSPGEKVTMSCKSSQSLLNSRTRKNYLAWFQQKPGQSPKLLIYWASTRESGVPDRFTGSGSGTDFTLTISSVQAEDLAVYYCKQSYTLRTFGGGTNLEIKR
notes: Mouse monoclonal antibody; The control 6F10 is called an IgG1 isotype control; also called Murine 16B5; pan antibody 16B5
not listed: [6] | [7]
binds: all other assays above

B2: chimeric 16B5 antibody (antibody, V domains shown)
VH: QIQLVQSGPELKKPGETVKISCKASGYPFTYHGMDWVKQAPWGGLEWMGWINTYSGVPTYADDFKGRFAFSLETSVGTAYLQINNLKNEDTATYFCARRRDFTMDFWGQGTSVTVSS
VL: NIVLSQSPSSLAVSPGEKVTMSCKSSQSLLNSRTRKNYLAWFQQKPGQSPKLLIYWASTRESGVPDRFTGSGSGTDFTLTISSVQAEDLAVYYCKQSYTLRTFGGGTNLEIKR
binds: [2] | [6]

B3: humanized 16B5, version H1L2 (antibody, V domains shown)
VH: QVQLVQSGSELKKPGASVKVSCKASGYPFTYHGMDWVRQAPGQGLEWMGWINTYSGVPTYADDFKGRFVFSLDTSVSTAYLQISSLKAEDTAVYFCARRRDFTMDFWGQGTTVTVSS
VL: NIVLTQSPDSLAVSLGERATINCKSSQSLLNSRTRKNYLAWFQQKPGQSPKLLIYWASTRESGVPDRFSGSGSGTDFTLTISSLQAEDVAVYYCKQSYTLRTFGGGTKVEIKR
binds: [2] | [6] | [5] | [7]

B4: humanized 16B5, version H1L3 (antibody, V domains shown)
VH: QVQLVQSGSELKKPGASVKVSCKASGYPFTYHGMDWVRQAPGQGLEWMGWINTYSGVPTYADDFKGRFVFSLDTSVSTAYLQISSLKAEDTAVYFCARRRDFTMDFWGQGTTVTVSS
VL: DIVLTQSPDSLAVSLGERATINCKSSQSLLNSRTRKNYLAWFQQKPGQSPKLLIYWASTRESGVPDRFSGSGSGTDFTLTISSLQAEDVAVYYCKQSYTLRTFGGGTKVEIKR
binds: [6]
